Data: patent US20250185657A1, “PEST CONTROLLING AGENT” (priority 2022, published 2025)
Some results were stated once for a whole list of compounds, not compound by compound. At least one compound was matched to its structure with a doubt left.

Key:
Format in all cases: in vivo
[1] = test system: Brown Planthopper (Nilaparvata lugens); assay: Brown planthopper control test (foliage dipping treatment); settings: 200 ppm, rice seedlings dipped, third instar nymphs, five days after the treatment, 25° C.
[2] = test system: Diamondback Moth (Plutella xylostella); assay: Diamondback moth control test (leaf piece dipping treatment); settings: 200 ppm, cabbage leaf piece dipped, third instar, five days after the treatment, 25° C.
[3] = test system: Tobacco Cutworm (Spodoptera litura); assay: Tobacco cutworm control test (leaf piece dipping treatment); settings: 200 ppm, cabbage leaf piece dipped, second instar larvae, five days after the treatment, 25° C.
[4] = test system: Southern Yellow Thrips (Thrips palmi); assay: Southern yellow thrips control test (leaf piece application treatment); settings: 200 ppm, sprayed on cucumber leaf piece, first instar larvae, two days after the treatment, 25° C.
[5] = test system: Cotton Aphid (Aphis gossypii); assay: Cotton aphid control test (leaf piece application treatment); settings: 200 ppm, sprayed on cucumber leaf piece, nymphs, five days after the treatment, 25° C.
[6] = test system: Tobacco Whitefly (Bemisia tabaci); assay: Tobacco whitefly control test (foliage application treatment); settings: 200 ppm, sprayed on cucumber leaf piece, adults, five days after the treatment, 25° C.

For `CCS(=O)(=O)c1cc(-c2ccc(F)cc2)cnc1-c1noc(=O)n1-c1cnc(C(F)(F)F)cn1` [Compound 78], the insect mortality rate [1] was no less than 80%, the insect mortality rate [2] was no less than 80% and the insect mortality rate [3] was no less than 80%. The “insect mortality rate or feeding damage prevention effect” value [4] was no less than 50% and the insect mortality rate [5] was no less than 80%.
Work on `CCS(=O)(=O)c1cc(C2(C#N)CC2)cnc1-c1noc(=O)n1-c1cc(C(F)(F)F)ccn1` [Compound 57] yielded an insect mortality rate [1] of no less than 80%, an insect mortality rate [2] of no less than 80% and an insect mortality rate [3] of no less than 80%. The “insect mortality rate or feeding damage prevention effect” value [4] was no less than 50% and the insect mortality rate [5] was no less than 80%.
For `CN(C)S(=O)(=O)c1cc2cc(Cl)ccc2nc1-c1noc(=O)n1-c1cc(C(F)(F)F)ccn1` [Compound 201], the insect mortality rate [1] was no less than 80%, the insect mortality rate [2] was no less than 80% and the insect mortality rate [3] was no less than 80%. For the same compound, the “insect mortality rate or feeding damage prevention effect” value [4] was no less than 50% and the insect mortality rate [5] was no less than 80%.
Compound `CCS(=O)(=O)c1cc(-c2ccccc2F)cnc1-c1noc(=O)n1-c1cc(C(F)(F)F)ccn1` [Compound 109] has an insect mortality rate [1] of no less than 80%, an insect mortality rate [2] of no less than 80% and an insect mortality rate [3] of no less than 80%. The “insect mortality rate or feeding damage prevention effect” value [4] was no less than 50% and the insect mortality rate [5] was no less than 80%.
`CCS(=O)(=O)c1cc2ccc(Cl)cc2nc1-c1noc(=O)n1-c1cc(C(F)(F)F)ccn1` [Compound 177] gave an insect mortality rate [1] of no less than 80%, an insect mortality rate [2] of no less than 80% and an insect mortality rate [3] of no less than 80%. The “insect mortality rate or feeding damage prevention effect” value [4] was no less than 50% and the insect mortality rate [5] was no less than 80%.
`CCS(=O)(=O)c1cnccc1-c1noc(=O)n1-c1ccc(C(F)(F)F)cn1` [Compound 75] gave an insect mortality rate [6] of no less than 80% and an insect mortality rate [5] of no less than 80%.
With `CCS(=O)(=O)c1cc(-c2ccc(OC(F)(F)F)cc2)cnc1-c1noc(=N)n1-c1ccc(C(F)(F)F)cn1` [Compound 123] the insect mortality rate [2] was no less than 80%, the insect mortality rate [3] was no less than 80% and the “insect mortality rate or feeding damage prevention effect” value [4] was no less than 50%. For the same compound, the insect mortality rate [5] was no less than 80%.
`CCS(=O)(=O)c1cc(-c2ccc(OC(F)F)cc2)cnc1-c1noc(=O)n1-c1cc(C(F)(F)F)ccn1` [Compound 93] showed an insect mortality rate [1] of no less than 80%, an insect mortality rate [2] of no less than 80% and an insect mortality rate [3] of no less than 80%. The “insect mortality rate or feeding damage prevention effect” value [4] was no less than 50% and the insect mortality rate [5] was no less than 80%.
`CCS(=O)(=O)c1cc(-c2ccc(OC(F)(F)F)cc2)cnc1-c1noc(=N)n1-c1cc(C(F)(F)F)ccn1` [Compound 146] was tested, and the insect mortality rate [2] was no less than 80%, the insect mortality rate [3] was no less than 80% and the “insect mortality rate or feeding damage prevention effect” value [4] was no less than 50%. It also gave an insect mortality rate [5] of no less than 80%.
With `CCS(=O)(=O)c1cc(Br)cnc1-c1noc(=O)n1-c1ccc(C(F)(F)C(F)(F)F)cn1` [Compound 15] the insect mortality rate [1] was no less than 80%, the insect mortality rate [6] was no less than 80% and the insect mortality rate [2] was no less than 80%. The insect mortality rate [3] was no less than 80% and the insect mortality rate [5] was no less than 80%.
